Binding data for 4 molecules are collected here from paper PMC8639990.

Amino acid sequences for entries named in this document (tags omitted).
UniProt P28033: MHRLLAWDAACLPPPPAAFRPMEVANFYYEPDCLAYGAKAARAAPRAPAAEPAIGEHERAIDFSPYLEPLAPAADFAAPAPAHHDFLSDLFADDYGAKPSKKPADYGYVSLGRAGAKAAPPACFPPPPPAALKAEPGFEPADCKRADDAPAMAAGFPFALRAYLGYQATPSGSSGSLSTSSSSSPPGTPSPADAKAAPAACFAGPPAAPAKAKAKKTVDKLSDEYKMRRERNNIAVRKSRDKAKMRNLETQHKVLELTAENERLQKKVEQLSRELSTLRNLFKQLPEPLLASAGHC
UniProt Q9JJ66: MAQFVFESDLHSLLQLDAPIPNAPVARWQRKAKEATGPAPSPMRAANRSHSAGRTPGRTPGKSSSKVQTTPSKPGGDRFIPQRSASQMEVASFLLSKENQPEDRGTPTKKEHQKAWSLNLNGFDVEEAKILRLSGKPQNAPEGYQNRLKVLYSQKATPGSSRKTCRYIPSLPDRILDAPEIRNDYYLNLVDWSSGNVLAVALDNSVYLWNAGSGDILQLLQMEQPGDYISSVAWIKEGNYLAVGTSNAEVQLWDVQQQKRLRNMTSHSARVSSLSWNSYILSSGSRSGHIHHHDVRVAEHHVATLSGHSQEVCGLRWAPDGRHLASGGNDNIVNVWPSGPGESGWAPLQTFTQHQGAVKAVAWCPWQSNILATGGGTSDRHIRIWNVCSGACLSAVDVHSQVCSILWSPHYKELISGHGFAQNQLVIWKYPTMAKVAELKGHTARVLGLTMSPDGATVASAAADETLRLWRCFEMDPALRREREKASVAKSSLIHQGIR
UniProt Q8BZQ7: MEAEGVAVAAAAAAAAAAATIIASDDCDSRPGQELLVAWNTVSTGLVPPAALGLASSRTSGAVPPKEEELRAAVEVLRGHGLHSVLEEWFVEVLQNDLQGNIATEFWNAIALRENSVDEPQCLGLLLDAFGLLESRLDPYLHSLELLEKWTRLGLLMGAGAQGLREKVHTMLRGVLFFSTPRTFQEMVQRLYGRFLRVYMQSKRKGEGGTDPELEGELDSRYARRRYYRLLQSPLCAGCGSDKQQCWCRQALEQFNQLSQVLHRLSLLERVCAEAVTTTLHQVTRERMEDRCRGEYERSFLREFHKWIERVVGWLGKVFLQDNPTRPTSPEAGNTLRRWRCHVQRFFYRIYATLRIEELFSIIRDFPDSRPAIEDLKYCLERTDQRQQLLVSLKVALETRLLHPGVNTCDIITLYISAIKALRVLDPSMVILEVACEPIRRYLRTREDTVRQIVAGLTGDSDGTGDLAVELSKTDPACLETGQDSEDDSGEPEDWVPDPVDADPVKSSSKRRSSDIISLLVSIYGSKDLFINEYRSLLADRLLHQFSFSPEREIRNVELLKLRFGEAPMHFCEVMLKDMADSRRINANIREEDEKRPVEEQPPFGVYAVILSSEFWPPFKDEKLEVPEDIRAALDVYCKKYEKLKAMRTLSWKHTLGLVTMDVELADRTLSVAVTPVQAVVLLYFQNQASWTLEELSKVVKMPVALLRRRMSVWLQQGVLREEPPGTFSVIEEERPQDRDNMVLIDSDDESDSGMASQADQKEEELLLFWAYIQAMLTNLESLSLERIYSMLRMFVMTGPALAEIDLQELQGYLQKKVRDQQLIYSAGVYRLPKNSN
UniProt Q9CPX9: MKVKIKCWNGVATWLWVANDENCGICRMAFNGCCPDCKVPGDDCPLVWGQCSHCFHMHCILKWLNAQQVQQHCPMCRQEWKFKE

Test [1] addresses T1, V5-tagged SETD5 (SET domain-containing 5), wild type (mouse) (UniProt Q5XJV7).
T1 sequence: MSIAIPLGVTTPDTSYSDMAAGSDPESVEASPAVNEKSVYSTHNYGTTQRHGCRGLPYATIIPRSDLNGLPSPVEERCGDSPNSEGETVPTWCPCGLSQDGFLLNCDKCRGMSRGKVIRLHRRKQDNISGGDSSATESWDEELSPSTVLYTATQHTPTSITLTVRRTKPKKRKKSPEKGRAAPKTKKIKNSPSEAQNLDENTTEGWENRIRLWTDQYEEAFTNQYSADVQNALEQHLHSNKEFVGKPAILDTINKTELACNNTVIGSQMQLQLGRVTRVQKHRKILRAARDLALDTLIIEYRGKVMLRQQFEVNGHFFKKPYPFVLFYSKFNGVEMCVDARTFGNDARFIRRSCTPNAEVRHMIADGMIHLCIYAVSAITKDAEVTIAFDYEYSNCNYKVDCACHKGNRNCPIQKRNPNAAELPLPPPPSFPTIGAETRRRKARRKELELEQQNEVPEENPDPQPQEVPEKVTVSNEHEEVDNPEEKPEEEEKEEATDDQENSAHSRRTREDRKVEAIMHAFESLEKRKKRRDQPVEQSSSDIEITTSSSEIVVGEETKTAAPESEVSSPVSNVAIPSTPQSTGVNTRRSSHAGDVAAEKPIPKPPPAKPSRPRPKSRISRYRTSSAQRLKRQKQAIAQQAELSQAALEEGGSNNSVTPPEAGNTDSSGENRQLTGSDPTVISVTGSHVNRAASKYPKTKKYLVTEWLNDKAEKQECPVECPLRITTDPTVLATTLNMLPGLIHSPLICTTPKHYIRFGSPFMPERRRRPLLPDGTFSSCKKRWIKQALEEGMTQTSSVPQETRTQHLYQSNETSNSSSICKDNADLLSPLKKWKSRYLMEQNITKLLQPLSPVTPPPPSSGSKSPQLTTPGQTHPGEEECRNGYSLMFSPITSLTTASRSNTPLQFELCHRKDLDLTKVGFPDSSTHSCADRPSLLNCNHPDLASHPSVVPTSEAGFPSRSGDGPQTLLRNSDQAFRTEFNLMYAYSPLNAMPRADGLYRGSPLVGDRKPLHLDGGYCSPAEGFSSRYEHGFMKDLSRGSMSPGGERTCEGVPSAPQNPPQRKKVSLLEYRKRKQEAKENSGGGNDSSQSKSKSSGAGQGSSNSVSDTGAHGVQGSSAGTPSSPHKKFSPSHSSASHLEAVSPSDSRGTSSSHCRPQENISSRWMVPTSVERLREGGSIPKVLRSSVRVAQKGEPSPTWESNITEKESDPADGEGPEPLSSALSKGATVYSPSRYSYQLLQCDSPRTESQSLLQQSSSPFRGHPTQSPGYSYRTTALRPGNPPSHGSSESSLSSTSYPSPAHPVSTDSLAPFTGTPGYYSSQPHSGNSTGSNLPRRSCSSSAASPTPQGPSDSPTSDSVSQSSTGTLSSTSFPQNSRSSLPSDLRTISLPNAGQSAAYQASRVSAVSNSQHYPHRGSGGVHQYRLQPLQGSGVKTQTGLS
The experiment in a line: co-IP; whole-cell lysate or nuclear fraction of SETD5-V5-transduced 3T3-L1 preadipocytes; anti-V5 immunoprecipitation, immunoblot; before differentiation induction, after differentiation induction (ANAPC2, ANAPC11), or MDI 9 h then 10 μM MG132 12 h (CDC20). A general note: Immunoblotting shows a protein as a band on a membrane.

Test [2] deals with CCAAT/enhancer-binding protein β (C/EBPβ) (mouse (endogenous in 3T3-L1)) (UniProt P28033). Put plainly: co-IP; SETD5-V5-transduced 3T3-L1 preadipocytes cross-linked with 1.5 mM ethylene glycol bis(succinimidylsuccinate) and 1% formaldehyde; nuclear fraction; anti-C/EBPβ immunoprecipitation, de-crosslinked, immunoblot with anti-V5; 6 h of differentiation.

These are yes or no findings as the source states them, for the method shown. In cells and extracts the contact can be indirect. Some binding calls cover weakened binding; strength is not graded here. Sequences can lack the tags named with a protein.

Turning to CDC20 (from UniProt Q9JJ66 1-499), in test [1], the binding entry was “binds”.

As to ANAPC2 (from UniProt Q8BZQ7 1-837), in test [1], the binding result is on record as “binds”.

Regarding ANAPC11 (from UniProt Q9CPX9 1-84), the binding result in test [1] is given as “binds”.

B1: V5-tagged SETD5 (SET domain-containing 5), wild type (protein, UniProt Q5XJV7 1-1441)
chain: T1 sequence
As for B1, the binding result in test [2] is “binds”.
